Data as given in patent US20200325218A1.
These are yes or no findings as the source states them, for the method shown. Some results given as binding are weak or reduced against the parent protein; the word gives no strength.

The chains behind the UniProt entries cited, without tags or fusion partners. Where a name states a change or a piece, a line headed by the entry shows the natural chain unless it says otherwise.
UniProt Q969D9: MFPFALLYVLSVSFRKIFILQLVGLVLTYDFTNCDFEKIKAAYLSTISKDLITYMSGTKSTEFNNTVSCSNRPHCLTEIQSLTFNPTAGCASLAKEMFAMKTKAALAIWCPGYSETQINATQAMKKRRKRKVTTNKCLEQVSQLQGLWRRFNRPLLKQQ

Biological target: human TSLP (HEK) (human) (UniProt Q969D9)
Assay: solution equilibrium titration (SET)

B1: anti-TSLP Fab1 (Fab, V domains shown)
VH: EVQLVESGGGLVKPGGSLRLSCAASGFTFSDYWMHWVRQAPGKGLEWVGHIKSKTDAGTTDYAAPVKGRFTISRDDSKNTLYLQMNSLKTEDTAVYYCAREIYYYAFDSWGQGTLVTVSS
VL: SYELTQPLSVSVALGQTARITCSGDNIGSKYVHWYQQKPGQAPVLVIYGDNERPSGIPERFSGSNSGNTATLTISRAQAGDEADYYCQAADWVDFYVFGGGTKLTVLG
binding: binds
